Assay results as given in the supplement of paper PMC10849652.
Some of the results follow.

Chains of the proteins cited; added tags and fusions are not shown. Lines headed by an entry give the natural chain unless they say otherwise; changes in a name come on top.
UniProt Q5BJH7: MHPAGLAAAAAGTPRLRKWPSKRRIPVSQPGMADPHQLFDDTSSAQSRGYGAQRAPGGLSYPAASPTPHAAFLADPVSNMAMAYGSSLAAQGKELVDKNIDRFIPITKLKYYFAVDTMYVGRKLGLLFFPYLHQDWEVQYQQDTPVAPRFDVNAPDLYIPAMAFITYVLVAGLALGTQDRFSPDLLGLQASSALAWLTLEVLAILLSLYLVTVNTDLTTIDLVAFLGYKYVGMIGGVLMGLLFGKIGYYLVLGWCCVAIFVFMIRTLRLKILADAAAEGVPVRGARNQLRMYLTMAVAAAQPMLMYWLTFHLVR
UniProt Q9BW85: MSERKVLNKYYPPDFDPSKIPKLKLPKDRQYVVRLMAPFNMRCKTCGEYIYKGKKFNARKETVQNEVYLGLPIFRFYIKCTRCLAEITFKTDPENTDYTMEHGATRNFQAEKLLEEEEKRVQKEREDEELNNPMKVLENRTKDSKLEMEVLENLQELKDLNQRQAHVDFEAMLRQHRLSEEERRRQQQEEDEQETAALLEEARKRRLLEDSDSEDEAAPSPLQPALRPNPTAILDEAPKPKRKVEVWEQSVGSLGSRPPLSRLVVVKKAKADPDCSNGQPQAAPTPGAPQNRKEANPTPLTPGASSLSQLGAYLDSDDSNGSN
UniProt Q6PJT7: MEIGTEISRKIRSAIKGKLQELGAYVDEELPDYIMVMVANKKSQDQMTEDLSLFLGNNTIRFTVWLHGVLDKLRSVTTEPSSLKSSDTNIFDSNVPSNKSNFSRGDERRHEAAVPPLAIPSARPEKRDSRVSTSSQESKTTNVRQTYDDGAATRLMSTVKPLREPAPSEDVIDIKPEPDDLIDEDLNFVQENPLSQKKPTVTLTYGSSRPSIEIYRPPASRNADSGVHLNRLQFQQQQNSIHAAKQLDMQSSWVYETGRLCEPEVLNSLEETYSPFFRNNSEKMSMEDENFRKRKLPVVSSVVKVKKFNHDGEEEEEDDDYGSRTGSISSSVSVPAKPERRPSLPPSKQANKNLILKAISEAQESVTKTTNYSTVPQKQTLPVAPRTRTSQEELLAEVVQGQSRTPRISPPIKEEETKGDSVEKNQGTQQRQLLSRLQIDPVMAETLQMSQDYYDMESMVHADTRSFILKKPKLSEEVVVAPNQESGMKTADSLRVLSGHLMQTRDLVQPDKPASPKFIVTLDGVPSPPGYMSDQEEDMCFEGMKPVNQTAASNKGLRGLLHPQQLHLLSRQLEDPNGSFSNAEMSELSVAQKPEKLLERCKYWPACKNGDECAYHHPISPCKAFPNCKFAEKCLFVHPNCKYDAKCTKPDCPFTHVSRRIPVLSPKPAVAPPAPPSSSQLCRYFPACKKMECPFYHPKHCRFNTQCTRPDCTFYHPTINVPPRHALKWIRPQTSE
UniProt P16989, whole entry, looked up: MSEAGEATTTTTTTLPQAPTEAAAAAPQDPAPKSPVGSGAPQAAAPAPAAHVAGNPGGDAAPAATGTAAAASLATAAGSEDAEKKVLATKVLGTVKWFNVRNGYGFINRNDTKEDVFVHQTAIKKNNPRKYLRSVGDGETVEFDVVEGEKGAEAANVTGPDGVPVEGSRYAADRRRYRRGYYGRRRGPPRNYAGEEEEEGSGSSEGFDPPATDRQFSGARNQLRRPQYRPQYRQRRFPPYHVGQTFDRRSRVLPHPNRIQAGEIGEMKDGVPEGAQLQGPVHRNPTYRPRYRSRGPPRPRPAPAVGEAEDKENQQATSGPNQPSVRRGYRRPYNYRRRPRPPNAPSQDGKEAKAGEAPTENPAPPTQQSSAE
UniProt Q8NF64: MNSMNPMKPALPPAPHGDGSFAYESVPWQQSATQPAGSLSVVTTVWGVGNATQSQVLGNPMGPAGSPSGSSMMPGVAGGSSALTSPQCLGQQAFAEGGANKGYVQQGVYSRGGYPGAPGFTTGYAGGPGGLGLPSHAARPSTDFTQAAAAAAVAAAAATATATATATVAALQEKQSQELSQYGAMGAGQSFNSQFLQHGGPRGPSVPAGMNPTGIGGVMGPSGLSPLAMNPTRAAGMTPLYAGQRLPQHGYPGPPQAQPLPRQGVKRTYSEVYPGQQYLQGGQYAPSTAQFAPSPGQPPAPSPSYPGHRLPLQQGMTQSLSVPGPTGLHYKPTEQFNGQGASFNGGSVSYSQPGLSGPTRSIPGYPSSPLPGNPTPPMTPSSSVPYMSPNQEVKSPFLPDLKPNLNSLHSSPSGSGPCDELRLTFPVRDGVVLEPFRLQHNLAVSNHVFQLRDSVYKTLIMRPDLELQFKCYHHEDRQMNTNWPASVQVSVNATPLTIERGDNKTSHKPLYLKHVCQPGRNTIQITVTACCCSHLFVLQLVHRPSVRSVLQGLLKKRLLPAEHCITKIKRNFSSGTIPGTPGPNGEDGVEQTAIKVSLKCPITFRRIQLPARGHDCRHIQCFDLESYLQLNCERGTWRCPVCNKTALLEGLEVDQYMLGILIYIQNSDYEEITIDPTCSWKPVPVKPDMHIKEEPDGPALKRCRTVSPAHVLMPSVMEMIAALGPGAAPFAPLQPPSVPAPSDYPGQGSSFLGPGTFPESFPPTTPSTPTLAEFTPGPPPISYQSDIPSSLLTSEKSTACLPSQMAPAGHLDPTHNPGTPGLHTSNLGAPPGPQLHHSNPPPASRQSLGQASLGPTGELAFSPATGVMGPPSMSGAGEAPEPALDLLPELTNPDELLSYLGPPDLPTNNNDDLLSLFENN
UniProt P27348: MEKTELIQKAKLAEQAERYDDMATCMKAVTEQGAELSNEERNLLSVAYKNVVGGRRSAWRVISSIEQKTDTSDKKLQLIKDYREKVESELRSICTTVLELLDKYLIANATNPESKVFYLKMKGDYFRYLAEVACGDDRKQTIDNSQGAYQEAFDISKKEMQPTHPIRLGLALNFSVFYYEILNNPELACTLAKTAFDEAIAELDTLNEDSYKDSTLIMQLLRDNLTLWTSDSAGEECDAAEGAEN
UniProt Q969M3: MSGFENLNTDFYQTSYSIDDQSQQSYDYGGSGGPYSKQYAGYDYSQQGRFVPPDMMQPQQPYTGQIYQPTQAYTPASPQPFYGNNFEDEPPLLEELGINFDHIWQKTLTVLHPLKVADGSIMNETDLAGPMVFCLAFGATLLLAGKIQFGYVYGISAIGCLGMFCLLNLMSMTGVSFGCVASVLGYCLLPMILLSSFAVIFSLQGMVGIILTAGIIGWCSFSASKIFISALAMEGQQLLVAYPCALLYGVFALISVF
UniProt Q6FIF0: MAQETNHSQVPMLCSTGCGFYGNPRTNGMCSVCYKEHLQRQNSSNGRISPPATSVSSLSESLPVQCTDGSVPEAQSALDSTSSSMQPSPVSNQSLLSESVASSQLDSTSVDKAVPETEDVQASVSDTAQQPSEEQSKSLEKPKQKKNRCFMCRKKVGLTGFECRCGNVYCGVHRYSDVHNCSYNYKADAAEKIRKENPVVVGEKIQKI
UniProt Q9NQH7: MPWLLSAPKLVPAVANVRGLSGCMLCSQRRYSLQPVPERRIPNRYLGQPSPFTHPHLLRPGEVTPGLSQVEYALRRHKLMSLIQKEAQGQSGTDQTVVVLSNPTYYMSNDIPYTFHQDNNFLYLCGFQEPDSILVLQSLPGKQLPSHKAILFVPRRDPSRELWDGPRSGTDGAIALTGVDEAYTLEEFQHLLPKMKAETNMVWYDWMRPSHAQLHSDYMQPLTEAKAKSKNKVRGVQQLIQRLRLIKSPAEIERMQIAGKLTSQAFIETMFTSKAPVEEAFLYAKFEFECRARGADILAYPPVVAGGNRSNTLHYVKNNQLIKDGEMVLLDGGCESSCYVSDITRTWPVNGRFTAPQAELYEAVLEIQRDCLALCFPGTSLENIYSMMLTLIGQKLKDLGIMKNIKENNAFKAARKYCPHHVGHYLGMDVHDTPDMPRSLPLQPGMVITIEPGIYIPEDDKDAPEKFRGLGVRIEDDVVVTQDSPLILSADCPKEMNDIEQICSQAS
UniProt Q14202: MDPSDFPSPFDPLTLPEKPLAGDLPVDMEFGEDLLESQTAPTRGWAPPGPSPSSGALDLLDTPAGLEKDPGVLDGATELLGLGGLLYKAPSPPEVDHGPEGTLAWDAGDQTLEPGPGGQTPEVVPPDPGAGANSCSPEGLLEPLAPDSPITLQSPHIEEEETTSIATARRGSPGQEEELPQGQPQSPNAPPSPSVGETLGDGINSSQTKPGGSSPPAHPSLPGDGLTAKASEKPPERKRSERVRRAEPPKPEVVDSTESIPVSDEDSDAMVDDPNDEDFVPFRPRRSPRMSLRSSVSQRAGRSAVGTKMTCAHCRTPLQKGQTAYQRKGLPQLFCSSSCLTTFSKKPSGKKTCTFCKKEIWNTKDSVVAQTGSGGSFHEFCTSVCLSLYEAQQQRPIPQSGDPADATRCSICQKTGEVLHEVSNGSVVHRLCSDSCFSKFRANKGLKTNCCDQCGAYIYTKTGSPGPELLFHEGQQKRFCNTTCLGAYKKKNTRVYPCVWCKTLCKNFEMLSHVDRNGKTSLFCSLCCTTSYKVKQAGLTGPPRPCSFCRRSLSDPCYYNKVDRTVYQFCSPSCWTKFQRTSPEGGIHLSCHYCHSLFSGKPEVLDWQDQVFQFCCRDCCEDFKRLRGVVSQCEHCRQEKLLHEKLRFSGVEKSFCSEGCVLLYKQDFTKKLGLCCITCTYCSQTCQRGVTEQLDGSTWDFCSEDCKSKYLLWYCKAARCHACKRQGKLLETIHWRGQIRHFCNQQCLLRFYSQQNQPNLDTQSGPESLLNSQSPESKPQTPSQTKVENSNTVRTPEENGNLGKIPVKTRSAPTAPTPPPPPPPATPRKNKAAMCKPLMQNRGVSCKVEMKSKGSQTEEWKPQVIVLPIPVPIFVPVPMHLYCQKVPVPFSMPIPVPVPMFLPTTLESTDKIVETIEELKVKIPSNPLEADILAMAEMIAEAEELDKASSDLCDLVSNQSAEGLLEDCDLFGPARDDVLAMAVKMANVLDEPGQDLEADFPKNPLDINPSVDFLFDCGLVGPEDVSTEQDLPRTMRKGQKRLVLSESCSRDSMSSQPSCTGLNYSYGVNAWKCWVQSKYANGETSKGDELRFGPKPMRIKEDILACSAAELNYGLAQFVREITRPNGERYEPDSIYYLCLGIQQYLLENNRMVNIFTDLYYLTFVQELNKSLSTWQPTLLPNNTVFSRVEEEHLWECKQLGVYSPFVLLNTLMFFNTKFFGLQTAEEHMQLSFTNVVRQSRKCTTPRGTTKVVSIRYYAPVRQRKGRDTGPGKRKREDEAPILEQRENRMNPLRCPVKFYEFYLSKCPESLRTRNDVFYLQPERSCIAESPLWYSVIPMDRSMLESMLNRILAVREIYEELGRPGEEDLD
UniProt O43592: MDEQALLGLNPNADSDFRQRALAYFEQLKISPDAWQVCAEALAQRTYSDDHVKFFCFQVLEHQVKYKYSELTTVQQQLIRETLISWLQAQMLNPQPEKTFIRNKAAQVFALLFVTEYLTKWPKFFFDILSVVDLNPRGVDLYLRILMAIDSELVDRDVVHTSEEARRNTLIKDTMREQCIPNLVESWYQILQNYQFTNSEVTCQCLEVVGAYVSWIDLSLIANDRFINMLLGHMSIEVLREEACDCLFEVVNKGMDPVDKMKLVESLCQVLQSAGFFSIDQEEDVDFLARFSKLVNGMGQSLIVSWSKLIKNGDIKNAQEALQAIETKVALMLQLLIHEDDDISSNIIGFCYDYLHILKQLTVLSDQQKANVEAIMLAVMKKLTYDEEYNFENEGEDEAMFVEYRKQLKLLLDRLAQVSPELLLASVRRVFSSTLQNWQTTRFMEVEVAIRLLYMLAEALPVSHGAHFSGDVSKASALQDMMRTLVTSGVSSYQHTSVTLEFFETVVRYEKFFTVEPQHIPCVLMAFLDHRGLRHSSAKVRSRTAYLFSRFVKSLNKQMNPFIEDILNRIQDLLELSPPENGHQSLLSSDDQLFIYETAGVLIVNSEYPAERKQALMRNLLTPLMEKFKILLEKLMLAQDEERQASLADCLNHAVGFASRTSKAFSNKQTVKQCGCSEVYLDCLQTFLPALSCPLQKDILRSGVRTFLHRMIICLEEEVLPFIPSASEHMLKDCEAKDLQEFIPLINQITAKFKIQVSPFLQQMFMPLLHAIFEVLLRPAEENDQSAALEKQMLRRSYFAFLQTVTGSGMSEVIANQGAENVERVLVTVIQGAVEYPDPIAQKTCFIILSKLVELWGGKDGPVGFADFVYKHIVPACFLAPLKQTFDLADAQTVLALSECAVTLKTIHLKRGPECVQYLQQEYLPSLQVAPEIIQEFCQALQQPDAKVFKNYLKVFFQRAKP
UniProt Q8WV99: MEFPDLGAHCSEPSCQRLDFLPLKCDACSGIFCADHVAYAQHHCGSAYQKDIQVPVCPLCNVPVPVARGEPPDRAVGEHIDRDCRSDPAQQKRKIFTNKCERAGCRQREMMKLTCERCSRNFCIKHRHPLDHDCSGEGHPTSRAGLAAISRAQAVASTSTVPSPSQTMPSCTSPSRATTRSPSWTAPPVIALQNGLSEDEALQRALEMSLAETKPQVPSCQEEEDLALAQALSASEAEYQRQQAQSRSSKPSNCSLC

Key:
Assay in all cases: log2 fold change, soluble protein after heating vs DMSO (PISA); higher = thermal stabilisation; K562 cells, 10 uM, 30 min; active = over 0.2 and 3.5 SD of the protein, either way, in both replicates (recomputed)
[1] = compound: COC1=CC=C(C=C1)CN2C=CC3=C2C=C(C=C3)C(=O)NO
Summary of the method: (§1)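 K562 cells at 2×10^6 cells/mL were treated for 30 min with 10 μM compound, and aliquots were heated for 3 min over 48°C-58°C before pooling. Extraction used PBS with 0.5% NP-40 at 4°C, and soluble protein was the supernatant after 21,000xg for 90 min, measured by TMTpro 16plex LC-MS/MS with channel sums equalised. Thermal stability values, relative to control samples and from duplicates, are log2 fold changes.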

filanesib = compound: CON(C)C(=O)N1N=C(c2cc(F)ccc2F)S[C@@]1(CCCN)c1ccccc1 [filanesib]
Summary of the method: as §1

zotarolimus = compound: CO[C@H]1C[C@@H]2CC[C@@H](C)[C@@](O)(O2)C(=O)C(=O)N2CCCC[C@H]2C(=O)O[C@H]([C@H](C)C[C@@H]2CC[C@H](n3cnnn3)[C@H](OC)C2)CC(=O)[C@H](C)/C=C(\C)[C@@H](O)[C@@H](OC)C(=O)[C@H](C)C[C@H](C)/C=C/C=C/C=C/1C [zotarolimus]
Summary of the method: as §1

idasanutlin = compound: COc1cc(C(=O)O)ccc1NC(=O)[C@@H]1N[C@@H](CC(C)(C)C)[C@](C#N)(c2ccc(Cl)cc2F)[C@H]1c1cccc(Cl)c1F [idasanutlin]
Summary of the method: as §1

alisertib = compound: COc1cc(Nc2ncc3c(n2)-c2ccc(Cl)cc2C(c2c(F)cccc2OC)=NC3)ccc1C(=O)O [alisertib]
Summary of the method: as §1

[2] = compound: COc1cc2nc(-c3cc(F)ccc3O)nc(N[C@@H]3CNC[C@H]3C(C)(C)O)c2cc1OC
Summary of the method: as §1

gefitinib = compound: COc1cc2ncnc(Nc3ccc(F)c(Cl)c3)c2cc1OCCCN1CCOCC1 [gefitinib]
Summary of the method: as §1

[3] = compound: COc1cccc2cc(-c3nc([C@H]4CC[C@H](C(=O)O)CC4)n4ncnc(N)c34)[nH]c12
Summary of the method: as §1

lapatinib = compound: CS(=O)(=O)CCNCc1ccc(-c2ccc3ncnc(Nc4ccc(OCc5cccc(F)c5)c(Cl)c4)c3c2)o1 [lapatinib]
Summary of the method: as §1

pictilisib = compound: CS(=O)(=O)N1CCN(Cc2cc3nc(-c4cccc5[nH]ncc45)nc(N4CCOCC4)c3s2)CC1 [pictilisib]
Summary of the method: as §1

[4] = compound: CS(=O)(=O)c1ccc(-c2cnc(N)c(C(=O)Nc3ccccc3)n2)cc1
Summary of the method: as §1

crizotinib = compound: C[C@@H](Oc1cc(-c2cnn(C3CCNCC3)c2)cnc1N)c1c(Cl)ccc(F)c1Cl [crizotinib]
Summary of the method: as §1

[5] = compound: C[C@@H]1COCCN1C2=NC(=NC(=C2)C3(CC3)S(=O)(=O)C)C4=C5C=CNC5=CC=C4
Summary of the method: as §1

[6] = compound: C[C@H](C1=CC=C(C=C1)C(=O)NC2=C3C=CNC3=NC=C2)N
Summary of the method: as §1

duvelisib = compound: C[C@H](Nc1ncnc2nc[nH]c12)c1cc2cccc(Cl)c2c(=O)n1-c1ccccc1 [duvelisib]
Summary of the method: as §1

gandotinib = compound: Cc1cc(Nc2cc(CN3CCOCC3)c3nc(C)c(Cc4ccc(Cl)cc4F)n3n2)n[nH]1 [gandotinib]
Summary of the method: as §1

tozasertib = compound: Cc1cc(Nc2cc(N3CCN(C)CC3)nc(Sc3ccc(NC(=O)C4CC4)cc3)n2)n[nH]1 [tozasertib]
Summary of the method: as §1

[7] = compound: Cc1cc(SCc2sc(-c3ccc(C(F)(F)F)cc3)nc2C)ccc1OCC(=O)O
Summary of the method: as §1

doramapimod = compound: Cc1ccc(-n2nc(C(C)(C)C)cc2NC(=O)Nc2ccc(OCCN3CCOCC3)c3ccccc23)cc1 [doramapimod]
Summary of the method: as §1

ispinesib = compound: Cc1ccc(C(=O)N(CCCN)[C@@H](c2nc3cc(Cl)ccc3c(=O)n2Cc2ccccc2)C(C)C)cc1 [ispinesib]
Summary of the method: as §1

Measured: log2 fold change

YIF1B (UniProt Q5BJH7)
inactive: [1] 0.081 | filanesib -0.043 | zotarolimus 0.044 | idasanutlin 0.05 | alisertib -0.112 | [2] -0.148 | gefitinib 0.005 | [3] 0.075 | lapatinib 0.036 | pictilisib -0.028 | [4] 0.029 | crizotinib 0.039 | [5] -0.006 | [6] 0.103 | duvelisib 0.144 | gandotinib 0.075 | tozasertib -0.036 | [7] 0.053 | doramapimod 0.018 | ispinesib -0.132

YDJC (UniProt A8MPS7)
inactive: [1] 0.03 | filanesib -0.055 | zotarolimus 0.03 | idasanutlin -0.049 | alisertib 0 | [2] 0.017 | gefitinib -0.055 | [3] 0.083 | lapatinib -0.026 | pictilisib 0.077 | [4] 0.067 | crizotinib -0.074 | [5] -0.002 | [6] -0.067 | duvelisib 0.027 | gandotinib 0.046 | tozasertib -0.014 | [7] 0.094 | doramapimod -0.032 | ispinesib 0.083

YJU2 (UniProt Q9BW85)
inactive: [1] -0.041 | filanesib -0.021 | zotarolimus 0.011 | idasanutlin 0.004 | alisertib 0.029 | [2] 0.032 | gefitinib -0.009 | [3] -0.03 | lapatinib -0.003 | pictilisib 0.009 | [4] -0.006 | crizotinib 0.173 | [5] 0.008 | [6] -0.054 | duvelisib 0.079 | gandotinib 0.056 | tozasertib 0.025 | [7] 0.028 | doramapimod -0.026 | ispinesib 0.05

ZC3H14 (UniProt Q6PJT7)
inactive: [1] -0.04 | filanesib 0.158 | zotarolimus -0.082 | idasanutlin 0 | alisertib 0.037 | [2] 0.125 | gefitinib -0.076 | [3] -0.01 | lapatinib 0.144 | pictilisib -0.005 | [4] 0 | crizotinib -0.093 | [5] -0.066 | [6] 0.015 | duvelisib -0.05 | gandotinib -0.052 | tozasertib 0.034 | [7] 0.091 | doramapimod 0.008 | ispinesib 0.009

YBX3 (UniProt P16989)
inactive: [1] -0.043 | filanesib 0.244 | zotarolimus -0.063 | idasanutlin 0.179 | alisertib -0.078 | [2] 0.005 | gefitinib -0.054 | [3] -0.153 | lapatinib 0.063 | pictilisib 0.006 | [4] -0.1 | crizotinib 0.088 | [5] -0.346 | [6] 0.2 | duvelisib -0.105 | gandotinib 0.34 | tozasertib 0.014 | [7] -0.002 | doramapimod 0.093 | ispinesib -0.117

ZMPSTE24 (UniProt O75844)
inactive: [1] -0.039 | filanesib -0.066 | zotarolimus 0.156 | idasanutlin -0.003 | alisertib -0.031 | [2] -0.002 | gefitinib 0.042 | [3] 0.058 | lapatinib 0.056 | pictilisib 0.042 | [4] -0.018 | crizotinib 0.1 | [5] -0.033 | [6] -0.015 | duvelisib 0.044 | gandotinib -0.003 | tozasertib -0.004 | [7] -0.025 | doramapimod 0.008 | ispinesib 0.078

ZMIZ2 (UniProt Q8NF64)
inactive: [1] -0.178 | filanesib -0.043 | zotarolimus -0.093 | idasanutlin 0.005 | alisertib -0.009 | [2] 0.133 | gefitinib 0.01 | [3] -0.041 | lapatinib -0.081 | pictilisib 0.023 | [4] 0.022 | crizotinib 0.116 | [5] 0.073 | [6] -0.012 | duvelisib 0.087 | gandotinib 0.063 | tozasertib -0.076 | [7] -0.038 | doramapimod -0.009 | ispinesib 0.02

ZMYM1 (UniProt Q5SVZ6)
inactive: [1] -0.056 | filanesib 0.067 | zotarolimus -0.05 | idasanutlin 0.085 | alisertib -0.021 | [2] 0.004 | gefitinib 0.014 | [3] -0.128 | lapatinib 0.082 | pictilisib -0.018 | [4] 0.026 | crizotinib -0.017 | [5] 0.029 | [6] 0.016 | gandotinib 0.305 | [7] 0.032 | doramapimod 0.003 | ispinesib -0.122

YWHAQ (UniProt P27348)
inactive: [1] 0.3 | filanesib -0.086 | zotarolimus 0.196 | idasanutlin -0.084 | alisertib -0.001 | [2] -0.148 | gefitinib 0.007 | [3] -0.098 | lapatinib 0.219 | pictilisib -0.142 | [4] -0.013 | crizotinib 0.026 | [5] 0.074 | [6] -0.302 | gandotinib -0.071 | [7] 0.119 | doramapimod -0.12 | ispinesib 0.241

YIPF5 isoform 3 (UniProt Q969M3)
inactive: [1] -0.065 | filanesib 0.017 | zotarolimus 0.006 | idasanutlin -0.051 | alisertib -0.009 | [2] 0.13 | gefitinib 0.024 | [3] 0.017 | lapatinib -0.163 | pictilisib 0.027 | [4] -0.093 | crizotinib 0.081 | [5] 0.019 | [6] -0.077 | gandotinib -0.1 | [7] 0.015 | doramapimod 0.041 | ispinesib 0.08

ZFAND6 (UniProt Q6FIF0)
inactive: [1] 0.066 | filanesib -0.111 | zotarolimus -0.045 | idasanutlin -0.096 | alisertib -0.079 | [2] 0.017 | gefitinib -0.005 | [3] 0.046 | lapatinib -0.106 | pictilisib 0.063 | [4] -0.036 | crizotinib -0.041 | [5] 0.127 | [6] 0.031 | gandotinib -0.004 | [7] -0.038 | doramapimod 0.017 | ispinesib -0.082

Copied from the listing (2 entries):
YWHAQ (UniProt P27348)
inactive: [1] 0.3 | filanesib -0.086 | zotarolimus 0.196 | idasanutlin -0.084 | alisertib -0.001 | [2] -0.148 | gefitinib 0.007 | [3] -0.098 | lapatinib 0.219 | pictilisib -0.142 | [4] -0.013 | crizotinib 0.026 | [5] 0.074 | [6] -0.302 | gandotinib -0.071 | [7] 0.119 | doramapimod -0.12 | ispinesib 0.241

YIPF5 isoform 3 (UniProt Q969M3)
inactive: [1] -0.065 | filanesib 0.017 | zotarolimus 0.006 | idasanutlin -0.051 | alisertib -0.009 | [2] 0.13 | gefitinib 0.024 | [3] 0.017 | lapatinib -0.163 | pictilisib 0.027 | [4] -0.093 | crizotinib 0.081 | [5] 0.019 | [6] -0.077 | gandotinib -0.1 | [7] 0.015 | doramapimod 0.041 | ispinesib 0.08

Remaining list, next part.

XPNPEP3 (UniProt Q9NQH7)
inactive: [1] -0.12 | filanesib -0.082 | zotarolimus -0.021 | idasanutlin -0.032 | alisertib -0.011 | [2] 0.027 | gefitinib -0.002 | [3] 0.078 | lapatinib -0.024 | pictilisib 0.027 | [4] 0.06 | crizotinib -0.013 | [5] 0.011 | [6] -0.001 | gandotinib -0.033 | [7] 0.034 | doramapimod 0.065 | ispinesib -0.046

ZMYM3 (UniProt Q14202)
inactive: [1] 0 | filanesib 0.012 | zotarolimus 0.093 | idasanutlin 0 | alisertib 0.057 | [2] -0.045 | gefitinib 0.034 | [3] 0.001 | lapatinib 0.007 | pictilisib -0.022 | [4] 0.023 | crizotinib 0.04 | [5] -0.058 | [6] 0.045 | gandotinib 0.051 | [7] -0.011 | doramapimod -0.009 | ispinesib -0.013

ZDHHC5 (UniProt Q9C0B5)
inactive: [1] -0.01 | filanesib 0.048 | zotarolimus -0.085 | idasanutlin -0.111 | alisertib -0.107 | [2] 0.117 | gefitinib 0.031 | [3] -0.007 | lapatinib -0.072 | pictilisib 0.047 | [4] 0.129 | crizotinib 0.075 | [5] -0.011 | [6] 0.006 | gandotinib -0.041 | [7] -0.03 | doramapimod 0.027 | ispinesib -0.035

XPOT (UniProt O43592)
inactive: [1] 0.011 | filanesib -0.052 | zotarolimus 0.022 | idasanutlin -0.073 | alisertib -0.059 | [2] 0.033 | gefitinib -0.023 | [3] -0.046 | lapatinib -0.028 | pictilisib 0.023 | [4] 0.009 | crizotinib -0.123 | [5] 0.024 | [6] -0.001 | gandotinib -0.177 | [7] 0.068 | doramapimod -0.011 | ispinesib -0.12

ZFAND2B (UniProt Q8WV99)
inactive: [1] -0.064 | filanesib -0.12 | zotarolimus -0.029 | idasanutlin -0.009 | alisertib -0.055 | [2] -0.038 | gefitinib 0.008 | [3] -0.015 | lapatinib 0.048 | pictilisib -0.036 | [4] 0.074 | crizotinib 0.055 | [5] 0.054 | [6] 0.04 | duvelisib -0.046 | gandotinib 0.006 | tozasertib -0.014 | [7] -0.034 | doramapimod 0.01 | ispinesib -0.005

ZER1 (UniProt Q7Z7L7)
inactive: [1] -0.236 | filanesib -0.006 | zotarolimus -0.035 | idasanutlin -0.188 | alisertib -0.006 | [2] 0.048 | gefitinib -0.031 | [3] 0.067 | lapatinib -0.057 | pictilisib 0.085 | [4] 0.034 | crizotinib 0.084 | [5] 0.107 | [6] -0.055 | gandotinib -0.269 | [7] 0.055 | doramapimod -0.163 | ispinesib 0.153
